Source: PubChem BioAssay AID192 (DTP/NCI, 2004)
The list is a part of this screen's results and no random one: it gathers tests that were run many times, whatever their T/C, doses with no T/C, and many T/C values between a quarter and a half above the control. Further doses and runs are listed elsewhere. T/C gives the treated animals as a percentage of the vehicle group. Some entries give survivors of the animals treated and no T/C: the source holds a T/C of zero for them, seemingly a mark for toxic or unscored doses. Some doses without a T/C left all or most animals alive at the check, yet need not have been tolerated: the source hardly ever lists a survival T/C far under the control, and the zero likely stands for such cases as well. Counts of survivors are from the toxicity check (mostly the fifth day) where no day follows; animals may have died later. Schedules are NCI's codes, read here as Q, the interval in days (D) or hours (H), X, the number of doses. Some doses were run more than once; the values are given in rising order. Some molecules as drawn cover several salts, stereoisomers or complexes of the source; a dose is that of the sample tested. Brackets with × give the number of equal values in this list. Where survival is the endpoint, the PubChem record calls one and a half times the control and up active, and a quarter to a half above the control has no call in these data; cut-offs in other NCI protocols can differ. Some T/C values carry the count of animals alive at the toxicity check (mostly the fifth day); where none is given, no animal had died by that day.

Test system: BDF1 mice, B16 melanoma ip, median survival T/C
Assay: NCI In Vivo Anticancer Drug Screen. Data for tumor model B16 Melanoma (intraperitoneal) in B6D2F1 (BDF1) mice
Details: T/C endpoint: median survival time, higher T/C = longer survival
Procedure: The antitumor activity of compounds was measured in mice bearing transplantable tumors. Survival or tumor size were measured and the results are expressed as the measurement made in the treated group (T) divided by the measurement made in the vehicle treated control group (C). The tumor model used in this assay is B16 Melanoma (intraperitoneal) in B6D2F1 (BDF1) mice

[1] = dose: 200.0 mg/kg/injection, schedule: Q01DX009 (ip), vehicle: saline
[2] = dose: 400.0 mg/kg/injection, schedule: Q01DX009 (ip), vehicle: saline
[3] = dose: 400.0 mg/kg/injection, schedule: Q01DX009 (ip), vehicle: Klucel (hydroxypropylcellulose) (HPC)
[4] = dose: 200.0 mg/kg/injection, schedule: Q01DX009 (ip), vehicle: saline with Tween-80
[5] = dose: 50.0 mg/kg/injection, schedule: Q01DX009 (ip), vehicle: saline
[6] = dose: 200.0 mg/kg/injection, schedule: Q04DX003 (ip), vehicle: saline
[7] = dose: 400.0 mg/kg/injection, schedule: Q04DX003 (ip), vehicle: saline
[8] = dose: 0.5 mg/kg/injection, schedule: Q01DX009 (ip), vehicle: saline with Tween-80
[9] = dose: 50.0 mg/kg/injection, schedule: Q01DX009 (ip), vehicle: saline with Tween-80
[10] = dose: 100.0 mg/kg/injection, schedule: Q01DX009 (ip), vehicle: saline with Tween-80
[11] = dose: 50.0 mg/kg/injection, schedule: Q01DX009 (ip), vehicle: Klucel (hydroxypropylcellulose) (HPC)
[12] = dose: 400.0 mg/kg/injection, schedule: Q01DX009 (ip), vehicle: saline with Tween-80
[13] = dose: 12.5 mg/kg/injection, schedule: Q01DX001 (ip), vehicle: water

COC(OC(CO)C(O)S(=O)(=O)O)C(O)S(=O)(=O)O (stereo not given)
T/C [1]: 131 % of control | survivor count [2]: 10 of 10

O=C(/C=C/C(=O)Oc1ccc(Cl)cc1)Oc1ccc(Cl)cc1
survivor count [3]: 10 of 10

O=C(O)CC1(CC(=O)O)CCCCC1
survivor count [4]: 10 of 10

CN1CC[C@]23c4c5ccc(O)c4O[C@H]2C(=O)CC[C@H]3[C@H]1C5
survivor count (dose: 100.0 mg/kg/injection, schedule: Q01DX005 (iv), vehicle: saline): 1 of 6 | survivor count (dose: 200.0 mg/kg/injection, schedule: Q01DX005 (iv), vehicle: saline): 0 of 6

CCCC(C(=O)OCCN(CC)CC)(c1ccccc1)c1ccccc1
survivor count [5]: 10 of 10

CCOCCc1ccccn1
survivor count (dose: 100.0 mg/kg/injection, schedule: Q04DX003 (ip), vehicle: saline): 10 of 10 | survivor count [6]: 10 of 10 | survivor count [7]: 9 of 10

CCN(CC)CCNc1ccc(C)c2sc3ccccc3c(=O)c12
survivor count (dose: 200.0 mg/kg/injection, schedule: Q01DX009 (ip), vehicle: suspension in saline): 10 of 10

COc1ccc(NC(=O)Nc2ccc(C)c(C)c2)cc1
survivor count (dose: 100.0 mg/kg/injection, schedule: Q01DX009 (ip), vehicle: Klucel (hydroxypropylcellulose) (HPC)): 10 of 10 | survivor count (dose: 200.0 mg/kg/injection, schedule: Q01DX009 (ip), vehicle: Klucel (hydroxypropylcellulose) (HPC)): 10 of 10 | survivor count [3]: 10 of 10

CNC(=O)Oc1c(C)occc1=O
survivor count (dose: 100.0 mg/kg/injection, schedule: Q01DX009 (ip), vehicle: saline): 5 of 6 | survivor count [1]: 2 of 6 | survivor count [2]: 0 of 6

Cc1cc(Cl)ccc1OCC(=O)Nc1nc(N)nc(N)n1
survivor count (dose: 100.0 mg/kg/injection, schedule: Q04DX003 (ip), vehicle: carboxymethylcellulose (CMC)): 10 of 10 | survivor count (dose: 200.0 mg/kg/injection, schedule: Q04DX003 (ip), vehicle: carboxymethylcellulose (CMC)): 10 of 10 | survivor count (dose: 400.0 mg/kg/injection, schedule: Q04DX003 (ip), vehicle: carboxymethylcellulose (CMC)): 9 of 10

O=C(Nc1ccc(Cl)cc1)Nc1ccccc1Cl
survivor count (dose: 200.0 mg/kg/injection, schedule: Q01DX009 (ip), vehicle: gum acacia): 10 of 10 | survivor count (dose: 400.0 mg/kg/injection, schedule: Q01DX009 (ip), vehicle: gum acacia): 9 of 9

CC[C@]12CN3CCc4c([nH]c5ccccc45)[C@@](C(=O)OC)(c4cc5c(cc4OC)N(C=O)[C@H]4[C@@](O)(C(=O)OC)[C@H](OC(C)=O)[C@]6(CC)C=CCN7CC[C@]54[C@@H]76)C[C@H](C3)[C@H]1O2
T/C (dose: 1.0 mg/kg/injection, schedule: Q01DX011 (ip), vehicle: saline): 126 % of control | T/C (dose: 2.0 mg/kg/injection, schedule: Q01DX011 (ip), vehicle: saline): 148 % of control

CCCCCCCCCCCCCC[n+]1ccccc1
survivor count (dose: 0.13 mg/kg/injection, schedule: Q01DX009 (ip), vehicle: saline with Tween-80): 6 of 6 | survivor count (dose: 0.25 mg/kg/injection, schedule: Q01DX009 (ip), vehicle: saline with Tween-80): 6 of 6 | survivor count [8]: 6 of 6 (2×)

COc1cc(C[C@H]2c3cc(OC)c(OC)cc3CCN2C)c(Oc2cc3c(cc2OC)-c2c(OC)c(OC)cc4c2[C@H](C3)N(C)CC4)cc1OC
T/C (dose: 25.0 mg/kg/injection, schedule: Q01DX009 (ip), vehicle: saline with Tween-80, evaluated on day 45): 92 % of control | T/C (dose: 25.0 mg/kg/injection, schedule: Q01DX009 (ip), vehicle: saline with Tween-80, evaluated on day 60): 89 % of control | survivor count (dose: 25.0 mg/kg/injection, schedule: Q01DX009 (ip), vehicle: saline with Tween-80): 10 of 10 and 6 of 6 | survivor count [9]: 5 of 6, 9 of 10, 6 of 6 | survivor count [10]: 5 of 6 | survivor count [4]: 6 of 6

CC[C@]1(O)C[C@H](OC2CC(N(C)C)C(OC3CC(O)C(O)C(C)O3)C(C)O2)c2c(cc3c(c2O)C(=O)c2c(O)ccc(O)c2C3=O)[C@H]1C(=O)OC (stereo not given in full)
T/C [8]: 138 % of control | T/C (dose: 0.8 mg/kg/injection, schedule: Q01DX009 (ip), vehicle: carboxymethylcellulose (CMC)): 140 % of control | T/C (dose: 1.6 mg/kg/injection, schedule: Q01DX009 (ip), vehicle: carboxymethylcellulose (CMC)): 149 % of control

CC1CC(NC(=S)S)CC(C)(C)C1 (stereo not given)
survivor count (dose: 2.5 mg/kg/injection, schedule: Q01DX009 (ip), vehicle: Klucel (hydroxypropylcellulose) (HPC)): 10 of 10 | survivor count (dose: 5.0 mg/kg/injection, schedule: Q01DX009 (ip), vehicle: Klucel (hydroxypropylcellulose) (HPC)): 10 of 10 | survivor count (dose: 10.0 mg/kg/injection, schedule: Q01DX009 (ip), vehicle: Klucel (hydroxypropylcellulose) (HPC)): 10 of 10 | survivor count (dose: 12.5 mg/kg/injection, schedule: Q01DX009 (ip), vehicle: Klucel (hydroxypropylcellulose) (HPC)): 10 of 10 | survivor count (dose: 25.0 mg/kg/injection, schedule: Q01DX009 (ip), vehicle: Klucel (hydroxypropylcellulose) (HPC)): 10 of 10 | survivor count [11]: 10 of 10

COc1cc2ccc(CCNCc3ccccc3)cc2cc1OC
survivor count [6]: 8 of 10

CC1(C)Oc2c(ccc(O)c2CN2CCOCC2)C2=C1CCCC2
survivor count (dose: 512.0 mg/kg/injection, schedule: Q01DX009 (ip), vehicle: Klucel (hydroxypropylcellulose) (HPC)): 5 of 5

Cc1cc(C)c(CCl)cc1CCl
survivor count (dose: 80.0 mg/kg/injection, schedule: Q04DX003 (ip), vehicle: saline with Tween-80): 9 of 10

O=[N+]([O-])O.[Cu+2].[NH-]CC[NH-].[NH-]CC[NH-]
survivor count (dose: 25.0 mg/kg/injection, schedule: Q01DX009 (ip), vehicle: saline): 6 of 10 | survivor count [5]: 0 of 10

O=C1C(=O)c2cccc3cccc1c23
survivor count [5]: 10 of 10 | survivor count [10]: 10 of 10 | survivor count [4]: 9 of 10 | survivor count [12]: 10 of 10

CCCCCCC(=O)CCCC
survivor count (dose: 400.0 mg/kg/injection, schedule: Q01DX009 (ip), vehicle: other): 8 of 10

O=S(O)OS(=O)O
survivor count [7]: 7 of 10

CC(=O)OCc1c(O)c2c(c(O)c1COC(C)=O)C(=O)C=CC2=O
survivor count [11]: 10 of 10

O=C(c1cccc(C(=O)n2c3c(c4ccccc42)CCCC3)c1)n1c2c(c3ccccc31)CCCC2
survivor count [10]: 10 of 10 | survivor count [4]: 8 of 10 | survivor count [12]: 8 of 10

C1OCN2CSCC12 (stereo not given)
T/C [4]: 126 % of control | T/C [12]: 135 % of control [8 of 10 alive]

COc1cccc2c1C(=O)c1c(O)c3c(c(O)c1C2=O)C[C@@](O)(C(C)=O)C[C@@H]3OC1CC(N2CCC(OC)CC2)C(O)C(C)O1 (stereo not given in full)
T/C (dose: 1.56 mg/kg/injection, schedule: Q01DX001 (ip), vehicle: water): 127 % of control | T/C (dose: 3.12 mg/kg/injection, schedule: Q01DX001 (ip), vehicle: water): 133 and 137 % of control | T/C (dose: 6.25 mg/kg/injection, schedule: Q01DX001 (ip), vehicle: water): 140 % of control | T/C [13]: 145 % of control | survivor count [13]: 10 of 10 | survivor count (dose: 25.0 mg/kg/injection, schedule: Q01DX001 (ip), vehicle: water): 1 of 10 and 5 of 10

CC(=O)Nc1ccc(N=Nc2c(O)c(S(=O)(=O)O)cc3cc(S(=O)(=O)O)ccc23)cc1
survivor count [9]: 10 of 10 | survivor count [10]: 10 of 10

CC(C)CC(NC(=O)c1ccccc1)C(=O)O (stereo not given)
survivor count [4]: 9 of 10 | survivor count [12]: 10 of 10

Cc1cc(C)c(C(=O)CC(=O)c2cccnc2)c(C)c1
survivor count (dose: 400.0 mg/kg/injection, schedule: Q01DX009 (ip), vehicle: saline + Tween-80 + alcohol): 10 of 10
